# From PubChem BioAssay AID493014 (National Center for Advancing Translational Sciences (NCATS), 2011)
# About 170 (0.05%) of roughly 340,000 compounds were called active. The shares of active, inactive and inconclusive entries below differ from those in the screen. Calls follow the shape of the dose curve; as a rule, active = well fitted inhibition curve with a large enough effect in the signal ratio, with a control signal flat (not every such curve was filed as active); inconclusive = small, poorly fitted or top-dose-only effect, or effect the other way, or a change in a side signal; inactive = flat fitted curve, though single readings scatter; the % refers to the signal ratio. Where the call is inconclusive, the potency comes from a doubtful curve fit.
# Experiment: qHTS Assay to Find Inhibitors of Chronic Active B-Cell Receptor Signaling;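 as to activity change, negative = inhibition: plate controls were basal doxycycline-induced cells for no effect and cells given 10 µM MG132 for full effect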
# Conditions: ABC-DLBCL IkBa-CBG/CBR reporter, luminescence ratio (green luciferase fused to IkBa over red control in TMD8 lymphoma cells), 4 h; activity change, negative = inhibition: at 46.1 µM (top of the series) unless noted
# Description: NIH Molecular Libraries Probe Production Network [MLPCN] NIH Chemical Genomics Center [NCGC] MLPCN Grant: 1 R03 DA031086-01A1 PI Name: Dr. R. Eric Davis NCGC Assay Overview: Diffuse large B-cell lymphoma (DLBCL) is the most common category of non-Hodgkin lymphoma, with ~20,000 new cases per year in the United States. DLBCL should be regarded as a collection of different neoplasms. Microarray gene expression analysis has defined two principal types of DLBCL, named for their similarity to normal B cell stages or activation states: a germinal center B-cell (GCB) type, and an activated B-cell (ABC) type. In ABC-DLBCL, a constitutive high-level activity of the NF-kappaB family of transcription factors has been observed (1) and NF-kappaB target genes are more highly expressed in ABC primary tumors than in GCB tumors. Functional studies have shown a constitutive high-level activity of the IkappaB (inhibitor of kappa-B) kinase (IKK) complex. […] Further analysis of DLBCL primary tumors for NF-kappaB target gene expression imply that although CARD11 is required for constitutive IKK activity in all ABC-DLBCL lines, mutations in CARD11 may be the root cause of IKK activation only in lines or tumors with such mutations. In other words, CARD11 mutations may explain NF-kappaB activation in only 10% of ABC-DLBCL cases. […] This process has been termed 'chronic active BCR signaling' (CABS). The goal of this screen is to find small-molecule inhibitors of the CABS pathway found in ABC-DLBCL lines using a cell-based assay that measures IkappaBalpa stability, which has already been extensively validated in the OCI-Ly3 line (PubChem AID:445; REF: 4). […] The assay uses green (CBG68) and red (CBR) emitting beetle luciferases [Chroma-GloTM developed by Promega Corp.] where the green luciferase is fused to IkappaBalpha and the red luciferase is present in its native state. Both luciferase genes are stably present in the TMD8 human ABC DLBCL cell line, but their expression is under the control of tetracycline-inducible promoters. Following the addition of doxycycline to induce expression of the luciferases, the green luminescence in control cultures rises only slowly because the CBG fusion partner IkappaBalpha is targeted by IKK activity for rapid degradation. In contrast, green luminescence rises rapidly in the presence of proteasome inhibitors or IKK inhibitors. The rise in red luminescence of CBR is not affected by proteasome or IKK inhibitors, and serves as normalization for cell number and nonspecific effects. Compounds were screened as a concentration-titration series that ranged from 46 uM to 3 nM.
# NCGC Assay Protocol Summary: Cells were seeded in 1536-well plates at 5000 cells/4uL in IMDM medium containing 0.5% FBS, w/o phenol red, 1% penicillin/streptomycin. Then, 23 nL of compounds or DMSO were delivered to each well using a pin tool. One uL 20ng/ml doxycycline was then dispensed into white solid 1536-well plates and the plates were incubated at 37C/5% C02 in a cell incubator for 4 hrs. Then 4 uL luminescent substrate mix (in-house prepared: 150 mM Tris-Cl, pH 7.6, 3 mM MgCl2, 1% Triton X-100, 5 mM DTT, 0.2 mM CoA, 0.15 mM ATP, 5 mM D-luciferin, final concentrations) was added to each well. The plate was incubated at r.t. for 10-15 min. The plates were measured on a ViewLux plate reader for green luminescence (540/20 nm filter) and red luminescence (618/8 nm filter). The green and red luminescent signals were corrected for red and green luminescence filter overlap using previously determined filter calibration constants (determined using the procedure outlined in the Promega Technical Manual; REF 4). The %Activity was determined from the ratio of corrected green/red luminescent values. MG132 were used as control. […] Red luminescent %Activity was normalized to the difference between red luminesence in basal cells (0%Activity) and zero luminescence (-100% Activity). […]
# Potency is read from the fitted curve at half-maximal effect.
SMILES,"activity change, negative = inhibition",Potency
Cc1nc(SCC(=O)N(C)C2CCS(=O)(=O)C2)c2ccccc2n1 (configuration not stated),inconclusive: -18.8%,–
NC(=O)CC(NC(=S)NCc1ccccc1)C(=O)O (configuration not stated),inconclusive: -20.5%,–
COc1ccc(C(=O)Nc2nnc(C(F)(F)F)s2)cc1,–,"inconclusive: 7.08 µM [falling, partial curve]"
Cc1cc(C(C)(C)C)cc(C)c1COC(=O)CN1C(=O)NC2(CCCC2)C1=O,inactive: 0.745%,–
O=C(Oc1c(-c2ccccc2)c(=O)n2c3c(cccc13)CC2)c1ccccc1,–,"inconclusive: 14.1 µM [falling, partial curve, poor fit]"
COc1ccc(/C=N/NC(=O)c2c(Br)cnn2C)c2ccccc12,inactive: -13%,–
CCCCn1c(-c2ccccc2)cnc1SCC(=O)NCCc1ccc(OC)c(OC)c1,–,"inconclusive: 1.84 µM [rising, partial curve, poor fit]"
O=C(OCC(=O)N1CCN(c2ccccc2)CC1)c1cccc(Cl)c1,inactive: -11.9%,–
O=[N+]([O-])c1ccc(N/N=C/c2cccc(O)c2O)cc1,inconclusive: -15%,–
CC(C)c1ccccc1NC(=S)NC(C)c1ccccc1 (configuration not stated),inactive: 5.36%,–
Oc1ccc(/C=N/Nc2nc(-c3ccccc3F)nc3ccccc23)c(O)c1,–,"inconclusive: 5.62 µM [falling, full curve]"
Cc1c(O)ccc(C(=O)CN2CCN(Cc3ccccc3)CC2)c1O,inconclusive: -0.427%,–
COc1ccc(/C=C/C(=O)Nc2cccc(S(=O)(=O)NC3=NCCCCC3)c2)cc1OC,–,"inconclusive: 29.1 µM [falling, single point]"
CCN(C[C@H]1N[C@@](CC)(C(=O)OC)[C@H]2C(=O)N(Cc3ccccc3)C(=O)[C@@H]12)C(=O)Nc1ccc(Cl)cc1,inactive: 2.29%,–
Clc1ccc(Cc2nnc(-c3cccs3)o2)cc1,inconclusive: 6.04%,–
Brc1cc(Br)cc(CN2CCSCC2)c1,inconclusive: -10.3%,–
COc1ccc(C)c(-n2c(=O)n(Cc3ccccc3)c(=O)c3[nH]cnc32)c1,inconclusive: -2.24%,–
O=C(Nc1nncs1)c1cc2c(s1)CCC2,inconclusive: -0.618%,–
COc1ccc(CNc2ncnc3c2cnn3-c2ccc(C)c(C)c2)cc1,inconclusive: -0.488%,–
CCN(CC)C1CCN(C(=O)CCc2nnc(CCCCc3ccccc3)o2)C1 (configuration not stated),inconclusive: 6.49%,–
Cc1ccccc1C(=O)Nc1sc2c(c1C(=O)O)CCC2,–,"inconclusive: 35.5 µM [rising, single point]"

SMILES,"activity change, negative = inhibition",Potency
Cc1c(OCC(=O)NCCN2CCOCC2)ccc2c(-c3ccccc3)cc(=O)oc12,inactive: -2.69%,–
Nc1c(C(=O)c2ccccc2)sc2c1c(=O)[nH]c(=O)n2-c1ccccc1,inconclusive: 4.8%,–
Cc1csc(NC(=O)/C=C/c2ccc(C)o2)n1,inconclusive: -0.0362%,–
CCN(CC)C(=O)CSc1nnc(-c2ccccc2)n1N,inconclusive: 8.7%,–
CC(=O)c1ccc(N(C(=O)Cn2nnc(-c3ccccc3)n2)C(C(=O)NC2CCCCC2)c2ccccn2)cc1 (configuration not stated),inconclusive: 5.96%,–
CCCc1cc(C(=O)Cc2nc3ccccc3s2)c(O)cc1O,inconclusive: 6.56%,–
O=C1NC(c2ccccc2)Nc2c1sc(=S)n2-c1ccccc1 (configuration not stated),inactive: 2.4%,–
CCN(CCO)Cc1cc(=O)oc2cc3c(cc12)CCC3,inactive: -7.43%,–
CCCC(=O)c1cc(F)c(N2CCN(S(=O)(=O)c3ccccc3)CC2)cc1C,inconclusive: 2.9%,–
CCOC(=O)c1sc(NC(=O)c2c(OC)cccc2OC)nc1C,inconclusive: 19.1%,–
O=C(Nc1nccs1)C1CCN(S(=O)(=O)c2ccccc2)CC1,inconclusive: -3.93%,–
Cc1ccc2cccc(N=Cc3c(C)[nH]n(-c4ccccc4)c3=O)c2n1,–,"inconclusive: 29.1 µM [falling, single point]"
COc1ccc(C(C)NC(=O)Cc2cccs2)cc1OC (configuration not stated),inconclusive: -0.966%,–
CCOC(=O)/C=C1/N(C)c2ccccc2C1(C)C,inactive: -2.02%,–
COc1cc(OC)c(N2CC(C(=O)Nc3cc(Cl)ccc3N3CCOCC3)CC2=O)cc1Cl (configuration not stated),–,"inconclusive: 20.6 µM [falling, single point]"
CC1=C(n2nnc([N+](=O)[O-])n2)C(c2cccnc2)C(C#N)=C(N)O1 (configuration not stated),inconclusive: -12.4%,–
Cc1cc(N=Cc2c(O)n(-c3cccc(Cl)c3)c(=O)c3ccccc23)no1,inconclusive: 17.5%,–
COC(=O)c1sc(=S)n(-c2ccc(Cl)cc2)c1C,–,"inconclusive: 20.6 µM [rising, partial curve]"
CC1CCN(Cc2ccc(NC(=O)CC3Oc4ccccc4NC3=O)cc2)CC1 (configuration not stated),inconclusive: -15.7%,–
COc1ccc2oc(-c3ccccc3[N+](=O)[O-])cc(=O)c2c1,inconclusive: -14.5%,–
CN(C)S(=O)(=O)c1cccc(NC(=S)N/N=C/c2ccc(O)c(O)c2O)c1,inconclusive: -1.36%,–

# 3 structures from above, sorted by length of the SMILES, high to low.
SMILES,"activity change, negative = inhibition",Potency
COc1ccc2oc(-c3ccccc3[N+](=O)[O-])cc(=O)c2c1,inconclusive: -14.5%,–
O=C(Nc1nccs1)C1CCN(S(=O)(=O)c2ccccc2)CC1,inconclusive: -3.93%,–
CCOC(=O)/C=C1/N(C)c2ccccc2C1(C)C,inactive: -2.02%,–
